According to PubChem BioAssay AID504467 (National Center for Advancing Translational Sciences (NCATS), 2011):
Hit rate of the full screen: of about 330,000 compounds, about 7,700 (2.3%) were called active. Inconclusive results, whose numbers are uncertain, are shown with a selection of clear calls. Calls follow the shape of the dose curve; as a rule, active = well fitted inhibition curve with a large enough effect; inconclusive = small, poorly fitted or top-dose-only effect, or effect the other way; inactive = flat fitted curve, though single readings scatter. A potency beside an inconclusive call is a rough fit, not a confirmed value.

Experiment: qHTS screen for small molecules that inhibit ELG1-dependent DNA repair in human embryonic kidney (HEK293T) cells expressing luciferase-tagged ELG1; also: nearly all actives have a fitted effect of over 55% in size
Conditions: HEK293T ELG1-luciferase reporter, luminescence, 16 h, DNA damage induced by 5-fluorouridine; series mostly up to 46.1 µM
Procedure, shortened: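 Quantitative HTS, concentration-response format. 2,000 cells/well co-treated with 5-fluorouridine and compound, 16 hr in 5% CO2 at 37 °C; ONE-Glo luminescence read after 30 min.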
Potency is read from the fitted curve at half-maximal effect.

Row | SMILES | Potency
1 | O=C(COC(=O)/C=C/c1ccc(F)cc1)NC1CCCC1 | inconclusive: 29.1 µM [activator, partial curve, poor fit]
2 | c1ccc(-c2noc(CN3CCCC(OCc4ccccn4)C3)n2)cc1 (stereo not drawn) | inconclusive: 29.1 µM [inhibitor, single point]
3 | CCc1nnc(NC(=O)c2ccc(-c3ccccc3Cl)o2)s1 | inconclusive: 14.6 µM [activator, partial curve]
4 | O=C(Cc1ccc(Cl)c(Cl)c1)Nc1cccc2ncccc12 | inconclusive: 18.3 µM [inhibitor, single point]
5 | CCCCn1c(N)c(N(CC(C)C)C(=O)C2CC(=O)N(Cc3ccco3)C2)c(=O)[nH]c1=O (stereo not drawn) | inactive
6 | O=c1cc(N2CCN(c3ccc(F)cc3)CC2)[nH]c(=O)n1Cc1ccc(F)cc1 | inconclusive: 20.6 µM [inhibitor, single point]
7 | C=C(C)C(=O)OC1(C(F)(F)F)Oc2cc(C)ccc2NC1=O (stereo not drawn) | inconclusive: 29.1 µM [activator, single point]
8 | O=C(NC(=S)Nc1ccc2c(c1)OCCO2)c1ccco1 | inconclusive: 7.3 µM [activator, partial curve]
9 | CCC(=O)c1c[nH]c(C(=O)N2CCOCC2)c1 | inactive
10 | COc1ccc(C(C(=O)NCC2CCCO2)N(Cc2ccccc2)C(=O)CNC(=O)c2ccco2)cc1OC (stereo not drawn) | inactive
11 | N/C(=N\OC(=O)c1ccco1)c1ccc(Cl)cc1 | inconclusive: 10.3 µM [activator, partial curve]
12 | CN(c1ccc(C(=O)N2CCN(c3ccccc3F)CC2)cc1)S(=O)(=O)c1ccccc1 | inconclusive: 23.1 µM [inhibitor, single point]
13 | Cc1ccc(O)c(C(=O)c2cnn(C(=O)COc3ccccc3C#N)c2)c1 | inconclusive: 5.8 µM [inhibitor, partial curve]
14 | Cc1sc(NC(=O)c2ccccc2F)c(CN2CCCCC2)c1C | inconclusive: 10.3 µM [activator, partial curve]
15 | CSc1ccc(CN(C)CC(=O)NC(=O)NC(C)(C)C)cc1 | inactive
16 | COc1ccc(-c2nc3scc(-c4ccccc4)n3n2)cc1 | inactive
17 | COc1cc2c(cc1OC)C(C)N(C(=O)/C=C/c1cc(OC)c(OC)c(OC)c1)CC2 (stereo not drawn) | active: 18.3 µM
18 | CC(C)(O)CC[C@@H](O)[C@](C)(O)C1CC[C@@]2(O)C3=CC(=O)[C@@H]4C[C@@H](O)[C@@H](O)C[C@]4(C)C3CC[C@]12C (stereo partly drawn) | inconclusive: 29.1 µM [activator, single point]
19 | Cc1ccnc(NC(=O)Nc2ccc(Br)cc2Cl)c1 | inconclusive: 0.73 µM [activator, full curve]
20 | C[C@H]1CC[C@H]2C(=O)N3[C@H](c4ccccc4Br)[C@@H](C)CC[C@H]3C(=O)N2[C@@H]1c1ccccc1Br | inconclusive: 14.6 µM [inhibitor, partial curve, poor fit]
21 | C/C(=N/NC(=O)c1cc(C2CC2)[nH]n1)c1cccs1 | inconclusive: 0.517 µM [activator, full curve]
22 | COc1ccc(NC(=O)c2c(C)oc3c2CCCC3)cc1 | inconclusive: 8.2 µM [activator, partial curve, poor fit]
23 | NC(=O)C1CCN(C(=O)C2CC(=O)N(Cc3ccccc3)C2)CC1 (stereo not drawn) | inconclusive: 6.51 µM [activator, partial curve, poor fit]

Compounds listed so far that contain fluorine:
Row | SMILES | Potency
1 | O=C(COC(=O)/C=C/c1ccc(F)cc1)NC1CCCC1 | inconclusive: 29.1 µM [activator, partial curve, poor fit]
6 | O=c1cc(N2CCN(c3ccc(F)cc3)CC2)[nH]c(=O)n1Cc1ccc(F)cc1 | inconclusive: 20.6 µM [inhibitor, single point]
7 | C=C(C)C(=O)OC1(C(F)(F)F)Oc2cc(C)ccc2NC1=O (stereo not drawn) | inconclusive: 29.1 µM [activator, single point]
12 | CN(c1ccc(C(=O)N2CCN(c3ccccc3F)CC2)cc1)S(=O)(=O)c1ccccc1 | inconclusive: 23.1 µM [inhibitor, single point]
14 | Cc1sc(NC(=O)c2ccccc2F)c(CN2CCCCC2)c1C | inconclusive: 10.3 µM [activator, partial curve]

Continuation:

Row | SMILES | Potency
24 | Cc1onc(-c2ccccc2)c1C(=O)c1c[nH]c(C(=O)NCc2ccncc2)c1 | active: 13 µM
25 | CC(C)(C)c1ccc(C(=O)N2CCN(CCNC(=O)C(=O)Nc3ccc(F)cc3)CC2)cc1 | inactive
26 | Cn1c(=O)cc(OCCCC(=O)Nc2ccccn2)c2ccccc21 | inconclusive: 4.61 µM [activator, full curve]
27 | CC1=C(C)/C(=N\OS(=O)(=O)c2ccccc2)C=CC1=O | inconclusive: 29.1 µM [inhibitor, single point]
28 | COc1ccc(-c2csc(C)n2)cc1Br | inconclusive: 32.6 µM [activator, single point]
29 | CN(c1ccccc1)S(=O)(=O)c1cccc(NC(=O)CSc2nncs2)c1 | inconclusive: 18.4 µM [inhibitor, partial curve]
30 | COc1cc(OC)cc(C(=O)N[C@H](C(=O)N2CCc3ccccc32)C(C)C)c1 | inactive
31 | Cn1c(CNc2ccccc2O)nc2ccccc21 | inconclusive: 13 µM [activator, partial curve]
32 | COc1cc(NC(=S)NC(=O)c2c(OC)cccc2OC)ccc1NC(=O)c1cccs1 | inconclusive: 25.9 µM [inhibitor, single point]
33 | Cc1cc(C)c2nc(SCC(=O)Nc3cc(C)on3)c(C#N)cc2c1 | inconclusive: 18.3 µM [activator, partial curve]
34 | CCOC(=O)c1c(C)c(C(=O)N2CCc3ccccc3C2)c(C)n1CC | inconclusive: 3.66 µM [inhibitor, single point]
35 | O=C(NCC(c1cccs1)N1CCOCC1)c1cn(-c2ccccc2)nc1-c1ccc(Cl)cc1 (stereo not drawn) | inconclusive: 20.6 µM [inhibitor, single point]
36 | Cc1ccc(S(=O)(=O)Nc2cccc(Cl)c2)cc1NC(=O)c1cccnc1 | inactive
37 | Cc1cccc(C)c1-n1c(C)cc(/C=N/NC(N)=S)c1C | inactive
38 | O=C(CCl)N1CCN(C(=O)C2COc3ccccc3O2)CC1 (stereo not drawn) | inconclusive: 29.1 µM [inhibitor, single point]
39 | CCCS(=O)(=O)n1nc(-c2ccc(C)cc2)cc1N | inconclusive: 18.4 µM [activator, single point]
40 | Cc1cccc(-n2c(N)c(-c3nc4ccccc4n3C)c3nc4ccccc4nc32)c1 | active: 1.84 µM
41 | O=C1C(=O)N(Cc2ccccc2)C(=O)N1CCN1C(=O)c2ccccc2C1=O | inactive
42 | Cc1ccc(NC(=O)c2cc(-c3ccc4c(c3)OCO4)on2)cc1 | inconclusive: 16.4 µM [activator, partial curve]
43 | COCCOC(=O)c1c(NC(=O)CN2CCc3ccccc32)sc(C(N)=O)c1C | inconclusive: 29.1 µM [inhibitor, single point]
44 | O=C(COC(=O)c1ccccc1NC(=O)c1ccco1)NCCC1=CCCCC1 | inconclusive: 3.66 µM [activator, partial curve, poor fit]
45 | Cc1ccc(NC(=O)c2cc(-c3ccc(C)c(C)c3O)n[nH]2)cc1C | inactive
46 | Cc1cccc(NC2=NCC(=O)N2CCc2ccccc2)c1 | inconclusive: 1.3 µM [activator, full curve, poor fit]

Row | SMILES | Potency
47 | COc1ccc(N2CCN(C(=O)c3ccc(Cn4nc(C)c([N+](=O)[O-])c4C)o3)CC2)cc1 | inconclusive: 16.4 µM [inhibitor, single point]
48 | Cc1[nH]nc2c1C(C(C)C)C(C#N)=C(N)O2 (stereo not drawn) | inconclusive: 29.1 µM [inhibitor, single point]
49 | COc1ccc(NC(=O)C(c2ccccn2)N(C(C)=O)c2ccc(C)cc2)cc1 (stereo not drawn) | inconclusive: 20.6 µM [activator, single point]
50 | CC1CC(=O)N(CC(=O)Nc2ccc(Br)cc2)c2ccccc2S1(=O)=O (stereo not drawn) | inactive
51 | COc1ccc(C(=O)/C=C/c2ccc(O)cc2)c(O)c1CC=C(C)C | inactive
52 | O=C(CCl)Nc1ccccc1C(=O)Nc1ccc2c(c1)OCO2 | inconclusive: 2.59 µM [activator, full curve]
53 | COc1ccc(/C=C2\CCC/C(=C\c3ccc(OC)c(OC)c3OC)C2=O)c(OC)c1OC | active: 23.1 µM
54 | COc1ccc(N2CC(C)(C)C2=O)cc1 | inconclusive: 10.3 µM [activator, partial curve, poor fit]
55 | COc1ccccc1/C=C\C=N\n1c(-c2ccc(Cl)cc2Cl)n[nH]c1=S | inactive
56 | Cc1cc(C(=O)N/N=C/c2c(C)nn(-c3ccccc3)c2C)n[nH]1 | inconclusive: 29.1 µM [activator, single point]
57 | COC(=O)[C@@]1(Cc2ccccc2)[C@H]2C(=O)N(C)C(=O)[C@H]2[C@H]2CN=C(SCc3ccc(Cl)cc3)N21 | inactive
58 | COC(=O)c1sccc1NC(=O)Nc1cc(C)cc(C)c1 | inconclusive: 11.6 µM [activator, partial curve]
59 | COCCN(Cc1ccccc1)C(=O)c1cccc(S(=O)(=O)N(C)c2c(C)n(C)n(-c3ccccc3)c2=O)c1 | inactive
60 | COc1ccc(CNC(=O)c2ccc(CN3CCOCC3)cc2)cc1 | inconclusive: 23.1 µM [activator, partial curve, poor fit]
61 | COc1ccc(C(=O)C(CN2CCCC2)c2ccccc2)cc1 (stereo not drawn) | active: 16.4 µM
62 | COc1ccc(-c2csc(N(CCCN3CCOCC3)C(=O)c3ccco3)n2)cc1 | active: 16.4 µM
63 | COc1ccc(OC)c(N(CC(=O)N2CCOCC2)S(C)(=O)=O)c1 | inactive
64 | Cc1ccc(-c2csc(/C(C#N)=C/Nc3ccccc3SC(F)(F)F)n2)cc1 | inconclusive: 11.6 µM [activator, partial curve]
65 | Cc1cc(C)c(OCC(=O)OCC(=O)NCCC2=CCCCC2)c(C)c1 | inactive
66 | O=C(NC(=S)Nc1ccccc1O)c1ccccc1Cl | inconclusive: 13 µM [activator, partial curve]
67 | N#Cc1c(Nc2ccccc2)sc(C(=O)c2ccc(F)cc2)c1N | inconclusive: 29.1 µM [inhibitor, single point]
68 | O=C(COc1ccc([N+](=O)[O-])cc1)N(Cc1ccccc1)Cc1ccccc1 | inconclusive: 1.84 µM [inhibitor, partial curve, poor fit]
